Data on 20 compounds can be found in the supplement of paper PMC12462457.

The subject of this test is OVCAR8. The test is described as follows: cell count relative to DMSO vehicle (fold change); higher = more surviving senescent cells (less killing). Particulars: senescence inducer: cisplatin 10 µM 48 h, then 6 d recovery (CP senescent), exposure time 24 h.

Counter-ions that a name gives are not always drawn. ± gives the standard deviation of the averaged measurements. Some of the results follow. Repeats in this data set agree poorly, so a single value says little.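 Cell counts came from imaging DAPI-stained nuclei, excluding as dead any cells lacking phalloidin-stained cytoplasm. Counts per well were normalized to the median vehicle-well count on that plate, and the values were averaged over two replicate plates.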

For `COc1cc(O)c(C(=O)/C=C/c2ccc(O)cc2)c(OC)c1` [Flavokawain C], the cell count runs as follows: (compound dose 1 µM) 0.963 ± 0.18; (compound dose 5 µM) 1.08 ± 0.13.

As to `CCn1cc(-c2ccc3c(c2)CCN3C(=O)Cc2cccc(OC(F)(F)F)c2)c2c(N)ncnc21`, the cell count by setting is: (compound dose 1 µM) 0.996 ± 0.12; (compound dose 5 µM) 1.03 ± 0.1.

For `CNC(=O)c1cc(Oc2ccc(NC(=O)Nc3ccc(Cl)c(C(F)(F)F)c3)cc2)ccn1` [Sorafenib], the cell count is, setting by setting: (compound dose 1 µM) 1.2 ± 0.27; (compound dose 5 µM) 1.22 ± 0.13.

On to `CNC(=O)c1cc(Oc2ccc(NC(=O)Nc3ccc(Cl)c(C(F)(F)F)c3)cc2)ccn1` [Sorafenib Tosylate], for which the cell count reads like this: (compound dose 1 µM) 1.2 ± 0.035; (compound dose 5 µM) 0.798 ± 0.47.

In the case of `CNC(=O)c1ccccc1Nc1cc(Nc2ccc(N3CCOCC3)cc2OC)ncc1C(F)(F)F`, the cell count turned out to be 0.984 ± 0.18 (compound dose 1 µM) and 0.879 ± 0.29 (compound dose 5 µM).

Turning to `COc1cccc2c1C(=O)c1c(O)c3c(c(O)c1C2=O)C[C@@](O)(C(C)=O)C[C@@H]3O[C@H]1C[C@H](N)[C@H](O)[C@H](C)O1` [Daunorubicin (hydrochloride)], the cell count was determined as 0.627 ± 0.014 (compound dose 1 µM) and 0.336 ± 0.2 (compound dose 5 µM).

`N#Cc1cc(N2CCC(C(=O)N3N=CC[C@H]3c3cc(F)cc(F)c3)CC2)ncn1`: the cell count amounted to 0.819 ± 0.021 (compound dose 1 µM) and 0.835 ± 0.086 (compound dose 5 µM).

With `Cc1ccc(S(=O)(=O)Cc2nc(-c3ccc(C(=O)NCc4cccnc4)cc3)oc2C)cc1`, the cell count runs as follows: (compound dose 1 µM) 1.33 ± 0.078; (compound dose 5 µM) 0.961 ± 0.19.

On to `COc1ccc(C(CC(=O)N2CCCC2)c2c(OC)cc(OC)c3c(-c4ccccc4)cc(=O)oc23)cc1` (stereo not given), for which the cell count is, setting by setting: (compound dose 1 µM) 1.22 ± 0.044; (compound dose 5 µM) 1.09 ± 0.13.

Regarding `Cc1cn([C@H]2C=C[C@@H](CO)O2)c(=O)[nH]c1=O` [Stavudine], the cell count amounted to 1.31 ± 0.072 (compound dose 1 µM) and 0.882 ± 0.088 (compound dose 5 µM).

Consider `Cc1ccc2nc(CN(CCN(Cc3nc4ccc(C)cc4[nH]3)Cc3nc4ccc(C)cc4[nH]3)Cc3nc4ccc(C)cc4[nH]3)[nH]c2c1`, for which the cell count reads like this: (compound dose 1 µM) 1.02 ± 0.1; (compound dose 5 µM) 1.11 ± 0.1.

Regarding `CCc1ccc(-c2nc(CSCC(=O)NCCc3ccccc3)c(C)o2)cc1`, the cell count is, setting by setting: (compound dose 1 µM) 0.838 ± 0.1; (compound dose 5 µM) 0.594 ± 0.078.

In the case of `N#CCNC(=O)c1ccc(-c2ccnc(Nc3ccc(N4CCOCC4)cc3)n2)cc1` [Momelotinib], the cell count reads like this: (compound dose 1 µM) 0.88 ± 0.066; (compound dose 5 µM) 0.914 ± 0.026.

On to `CS(=O)(=O)OCCCCOS(C)(=O)=O`, for which the cell count is 0.367 ± 0.1 (compound dose 1 µM) and 0.457 ± 0.0064 (compound dose 5 µM).

In the case of `CC1(C)CCC(c2ccc(Cl)cc2)=C(CN2CCN(c3ccc(C(=O)NS(=O)(=O)c4ccc(N[C@H](CCN5CCNCC5)CSc5ccccc5)c(S(=O)(=O)C(F)(F)F)c4)cc3)CC2)C1` [Navitoclax-piperazine], the cell count (compound dose 1 µM) amounted to 0.404 ± 0.026 and the cell count (compound dose 5 µM) amounted to 0.145 ± 0.063.

Regarding `O=C(/C=C/c1ccc(O)cc1)c1ccc(O)cc1O` [Isoliquiritigenin], the cell count reads like this: (compound dose 1 µM) 1.22 ± 0.042; (compound dose 5 µM) 1.1 ± 0.16.

The compound `Oc1c(C(Nc2ccccn2)c2cccs2)ccc2cccnc12` (stereo not given) gave a cell count (compound dose 1 µM) of 1.35 ± 0.15 and a cell count (compound dose 5 µM) of 1.32 ± 0.082.

Take `Oc1ccc(C(c2c[nH]c3ccccc23)c2c[nH]c3ccccc23)cc1`: the cell count is, setting by setting: (compound dose 1 µM) 0.803 ± 0.0014; (compound dose 5 µM) 0.749 ± 0.015.

As for `CN1CCc2c(c3ccccc3n2Cc2ccc(C(=O)NO)cc2)C1` [Tubastatin A HCl], the cell count (compound dose 1 µM) turned out to be 0.882 ± 0.025 and the cell count (compound dose 5 µM) is 0.973 ± 0.025.

As to `CN1CCc2c(c3ccccc3n2Cc2ccc(C(=O)NO)cc2)C1` [Tubastatin A], the cell count is, setting by setting: (compound dose 1 µM) 1.14 ± 0.05; (compound dose 5 µM) 0.989 ± 0.037.
